{
  "source": "patent US20090029929",
  "key": {"GABPα (in cells)": {"molecular_target": "T1, GABPα (in cells) (UniProt Q00422)", "T1 sequence (looked up, limits assumed)": "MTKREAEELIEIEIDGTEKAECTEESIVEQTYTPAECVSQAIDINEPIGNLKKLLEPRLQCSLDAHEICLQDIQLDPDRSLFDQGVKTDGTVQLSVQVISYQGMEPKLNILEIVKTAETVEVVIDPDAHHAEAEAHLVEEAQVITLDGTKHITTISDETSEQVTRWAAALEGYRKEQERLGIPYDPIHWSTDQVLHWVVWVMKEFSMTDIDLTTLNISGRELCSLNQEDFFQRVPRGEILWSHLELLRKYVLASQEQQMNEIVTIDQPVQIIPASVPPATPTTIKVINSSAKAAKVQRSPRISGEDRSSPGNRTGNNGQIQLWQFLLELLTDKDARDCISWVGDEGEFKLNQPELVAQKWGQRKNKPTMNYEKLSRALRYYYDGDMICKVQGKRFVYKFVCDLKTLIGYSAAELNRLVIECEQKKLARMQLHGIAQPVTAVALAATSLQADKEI", "assay": "activity in cells", "conditions": "GABPα increased transcription in NIH3T3; promoter length not stated for this figure; protein in cells"}, "GABPα/GABPβ complex": {"test_system": "GABPα/GABPβ complex", "assay": "activity in cells", "conditions": "GABPα/β transactivation of luciferase reporter in cells; protein translated in vitro; protein details: in vitro translation products"}, "Fli-1 (in cells)": {"molecular_target": "T2, Fli-1 (in cells) (UniProt P26323)", "T2 sequence (looked up, limits assumed)": "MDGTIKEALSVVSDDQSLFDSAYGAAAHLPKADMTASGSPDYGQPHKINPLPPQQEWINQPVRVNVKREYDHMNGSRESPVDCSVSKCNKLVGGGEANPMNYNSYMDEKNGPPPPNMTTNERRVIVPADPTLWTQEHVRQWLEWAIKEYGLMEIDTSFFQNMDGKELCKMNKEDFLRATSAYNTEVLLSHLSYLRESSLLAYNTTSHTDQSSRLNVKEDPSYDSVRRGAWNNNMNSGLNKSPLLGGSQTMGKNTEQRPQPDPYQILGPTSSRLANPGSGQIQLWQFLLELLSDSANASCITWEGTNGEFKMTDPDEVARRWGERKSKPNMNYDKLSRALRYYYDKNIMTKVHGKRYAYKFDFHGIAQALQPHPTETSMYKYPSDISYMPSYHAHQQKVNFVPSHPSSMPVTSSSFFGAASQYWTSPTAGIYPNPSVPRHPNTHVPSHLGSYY", "assay": "activity in cells", "conditions": "Fli-1 inhibited transcription in NIH3T3; promoter length not stated for this figure; protein in cells"}, "[1]": {"test_system": "Ets family EBS-1 binding factors (NIH3T3 nuclear extract) (Mus musculus)", "assay": "competition with a labelled probe", "conditions": "unlabelled mutant did not compete; protein in an extract; variant of EBS-1 WT probe"}, "[2]": {"test_system": "Ets family EBS-1 binding factors (NIH3T3 nuclear extract) (Mus musculus)", "assay": "EMSA", "conditions": "protein in an extract; label: 32P"}, "[3]": {"molecular_target": "T3, GABPα (RA synovial cell nuclear extract) (Homo sapiens) (UniProt Q06546)", "T3 sequence (looked up, limits assumed)": "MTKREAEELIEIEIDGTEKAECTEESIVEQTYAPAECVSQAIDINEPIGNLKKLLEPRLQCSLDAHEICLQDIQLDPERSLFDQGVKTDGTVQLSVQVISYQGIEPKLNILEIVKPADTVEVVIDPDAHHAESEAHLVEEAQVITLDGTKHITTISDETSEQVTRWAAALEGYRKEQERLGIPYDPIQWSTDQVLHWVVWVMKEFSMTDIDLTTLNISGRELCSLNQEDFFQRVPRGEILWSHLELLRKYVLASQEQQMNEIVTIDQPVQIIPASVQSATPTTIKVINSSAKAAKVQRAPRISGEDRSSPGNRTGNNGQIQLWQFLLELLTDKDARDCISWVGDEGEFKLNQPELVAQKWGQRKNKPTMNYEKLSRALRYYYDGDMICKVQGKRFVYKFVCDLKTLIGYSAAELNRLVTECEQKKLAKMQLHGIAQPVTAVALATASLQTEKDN", "assay": "EMSA", "conditions": "supershift in synovial cell nuclear extract; probe presumed EBS-1 WT; protein in an extract; protein details: endogenous, identified by antibody supershift; label: 32P"}},
  "note": "The exact form of at least one protein or probe is not confirmed. For part of these data: At least one result comes from cells or an extract, where the contact may be indirect. For part of these data: A negative result means that nothing was seen under these conditions. For part of these data: Tags and fusion partners may be left off the protein sequences shown.",
  "data": [
    {"sequence": "CGACCACACGTCACAGCTCTCGCTCGTTCCGGTTGCTCGCGCAGGGGGTGGGGAGTGTTGTTAACCGGAGCGGCTGCCGCAGTCGCGGTGATTGAGCGTACTCCGCCGCGCCCCGCGCCGCCGGAAGTGAGGTGTCTTACCCCCGAAGTTCCGGTTCGCAGGGGGTGGGGAGTGTTGTTAACCGGAGCGGCTGCCGCAGTCGCGGTGATTGAGCGTGCTCGCGGCGCTGGGCTCCTGGTGAGTGGGCCTGGTCCTGATTGGGGTTGGGGGGTCGGCGTCTAGGACCTTGTCCTTTGGGGTCACTGCGATCAGCCCGCCCCGCTGCGTTCGGCCGCCAGTTTTCGGCCTGTCAGATGGCTGGAGACCTTAGGCGGCGGCGCGGCCACCGTTCCAGAGGCCGGGCCCCGCCTGCGAGGTTCGCAACTCCTAGCGTTCACAGGTGCGCGACTGTGAGGCGACCTGACTGGTTCTCAGCCCCGCCGCCGCACCCTGGCGGTCGGCCGTTTCTCCGGTTCTCAGAGTGGACACTGCTGGGGGCGGGGGGGGGGGCAGGGTTCCAGACTGACGTACCCCGATGGGCGCGCGTCTGCGCTGACCACCCTGGCACAGCTGTCACTGGTTGTGTCGCCTTCTCAAGCTGTGCCCTCTGCACCTTGCCTCCTCCACCCCTGGCGGGCCCAGCGAACCTGCCTCTAAAGCCTATCATCCCAGCTCCTTCAGAGGGTCAGCGGTGGCAGCCCCCCTCCTCCTAACTTTGCCTCAGTGACTCCCTAGAGGAGGCGCCTTGGCAGACAGCGTGGAAGAGCCCTAGATTTGAAACGAGATTGATCCAAGTTCTAGGCCTTGCATCAGTGTGAGCCTCTAACCCCTTTGAGTCCTAGTTTCTCGTTTGTGAAACAGGGAGTATATGCTGTTTTGAATCTAATGGCTGTCAAGGTGAAATGAGTGTTTGCCCTTACACTCTGCCAGGGACTGTGCTAGGTTTACATAGTGTGGATATCACAAATGTCATTTTCCTTGTGCAGGTCTCTGGGCCAGGGCG (double strand) [Synoviolin promoter -200/+843]", "values": [
      {"measurement": "activity on this sequence", "setting": "GABPα (in cells)", "value": "active"},
      {"measurement": "activity on this sequence (fold activation)", "setting": "GABPα/GABPβ complex", "value": 3},
      {"measurement": "activity on this sequence", "setting": "Fli-1 (in cells)", "value": "active"}
    ]},
    {"sequence": "CCCCGCGCCGCCGTAAGTGT (double strand) [EBS-1 MT probe (G-76T)]", "values": [
      {"measurement": "binding result", "setting": "[1]", "value": "no binding"}
    ]},
    {"sequence": "CCCCGCGCCGCCGGAAGTGT (double strand) [EBS-1 WT probe]", "values": [
      {"measurement": "binding result", "setting": "[2]", "value": "binds"},
      {"measurement": "binding result", "setting": "[3]", "value": "binds"}
    ]}
  ]
}
